These are yes or no findings as the source states them, for the method shown. Some entries that bind do so weakly or less than the wild type.
Molecular target: human SIRT1 protein (human) (UniProt Q96EB6)
Assay: SPR; Biacore T200; human SIRT1 amine-coupled to a CM5 chip (10 mM sodium acetate pH 4.0 plus 20 uM NAD+); peptides injected at 20, 100 and 200 uM (repeat with 10 to 200 uM), contact 300 s, 20 ul/min, dissociation 1200 s; regeneration 2.0 M glycine pH 2.0 then 2.0 M NaCl; both purified

Chains of the proteins cited; added tags and fusions are not shown.
UniProt Q96EB6: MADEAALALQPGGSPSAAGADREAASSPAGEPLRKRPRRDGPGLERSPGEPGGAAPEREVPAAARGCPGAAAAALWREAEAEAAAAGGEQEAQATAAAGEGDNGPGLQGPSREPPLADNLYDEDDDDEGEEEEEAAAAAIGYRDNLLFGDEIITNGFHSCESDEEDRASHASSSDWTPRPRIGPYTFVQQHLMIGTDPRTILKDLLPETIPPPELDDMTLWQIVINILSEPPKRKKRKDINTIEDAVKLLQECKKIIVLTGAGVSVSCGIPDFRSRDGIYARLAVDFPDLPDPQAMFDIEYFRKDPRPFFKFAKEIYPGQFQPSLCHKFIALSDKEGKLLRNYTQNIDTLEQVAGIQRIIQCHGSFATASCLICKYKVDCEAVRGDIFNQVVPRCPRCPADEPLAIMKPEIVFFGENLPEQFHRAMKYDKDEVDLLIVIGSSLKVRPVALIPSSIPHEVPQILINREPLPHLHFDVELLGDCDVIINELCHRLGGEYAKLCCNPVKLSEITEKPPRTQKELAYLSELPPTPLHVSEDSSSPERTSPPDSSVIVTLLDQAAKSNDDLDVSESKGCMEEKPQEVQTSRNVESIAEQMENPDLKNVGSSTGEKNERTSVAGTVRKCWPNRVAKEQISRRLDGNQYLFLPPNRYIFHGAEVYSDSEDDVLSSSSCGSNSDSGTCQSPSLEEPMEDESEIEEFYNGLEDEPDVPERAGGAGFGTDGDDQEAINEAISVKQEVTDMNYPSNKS

| binding | Binder |
| --- | --- |
| binds weakly | IQQVFESGGSKKCIQVGWEF (acetyl-lysine at the underlined K (K222)) [AIRE G228W mutant SAND domain peptide (positions 211 to 230 of the human AIRE protein)] |
| binds | IQQVFESGGSKKCIQVGGEF (acetyl-lysine at the underlined K (K222)) [AIRE wild-type SAND domain peptide (positions 211 to 230 of the human AIRE protein)] |
